Results are given in words; binding and its absence hold for the method and conditions named. In cells and extracts the contact can be indirect. Here binding means that the protein was enriched with, or labelled near, the bait; the list need not be complete.
T1: YAF9 (S. pombe) (S. pombe) (UniProt Q10319)
T1 sequence: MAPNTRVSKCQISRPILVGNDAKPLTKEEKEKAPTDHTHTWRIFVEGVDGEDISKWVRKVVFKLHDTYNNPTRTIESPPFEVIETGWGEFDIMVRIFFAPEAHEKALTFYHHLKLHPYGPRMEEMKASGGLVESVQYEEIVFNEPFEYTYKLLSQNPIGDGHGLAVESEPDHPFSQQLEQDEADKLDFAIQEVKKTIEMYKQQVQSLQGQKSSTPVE

T2: Clr6p (S. pombe) (S. pombe) (UniProt O59702)
T2 sequence: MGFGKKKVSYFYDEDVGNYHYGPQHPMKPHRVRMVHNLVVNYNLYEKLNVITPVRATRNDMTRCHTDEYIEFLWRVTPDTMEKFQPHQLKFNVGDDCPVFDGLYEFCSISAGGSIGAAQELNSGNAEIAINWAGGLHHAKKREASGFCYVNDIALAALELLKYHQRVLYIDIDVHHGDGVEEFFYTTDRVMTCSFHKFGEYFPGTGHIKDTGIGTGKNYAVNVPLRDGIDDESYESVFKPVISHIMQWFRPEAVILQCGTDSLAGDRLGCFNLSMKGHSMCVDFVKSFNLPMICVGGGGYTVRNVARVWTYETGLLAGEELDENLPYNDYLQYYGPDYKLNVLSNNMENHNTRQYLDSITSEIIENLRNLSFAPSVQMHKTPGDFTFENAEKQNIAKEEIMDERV

T3: SWC4 (S. pombe) (S. pombe) (UniProt O14308)
T3 sequence: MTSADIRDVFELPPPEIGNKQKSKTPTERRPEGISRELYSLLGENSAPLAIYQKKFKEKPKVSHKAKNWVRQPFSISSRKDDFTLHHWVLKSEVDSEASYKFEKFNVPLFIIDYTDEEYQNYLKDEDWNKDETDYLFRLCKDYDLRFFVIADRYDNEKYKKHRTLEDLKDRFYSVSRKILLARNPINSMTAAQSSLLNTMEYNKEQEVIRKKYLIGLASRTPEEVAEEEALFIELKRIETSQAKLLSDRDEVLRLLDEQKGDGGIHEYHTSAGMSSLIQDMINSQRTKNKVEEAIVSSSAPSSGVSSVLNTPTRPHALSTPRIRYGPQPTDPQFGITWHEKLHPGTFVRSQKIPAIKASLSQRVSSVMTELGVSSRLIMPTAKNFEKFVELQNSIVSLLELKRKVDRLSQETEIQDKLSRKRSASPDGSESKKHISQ

T4: Sp_Alp13p (S. pombe) (UniProt O13953)
T4 sequence: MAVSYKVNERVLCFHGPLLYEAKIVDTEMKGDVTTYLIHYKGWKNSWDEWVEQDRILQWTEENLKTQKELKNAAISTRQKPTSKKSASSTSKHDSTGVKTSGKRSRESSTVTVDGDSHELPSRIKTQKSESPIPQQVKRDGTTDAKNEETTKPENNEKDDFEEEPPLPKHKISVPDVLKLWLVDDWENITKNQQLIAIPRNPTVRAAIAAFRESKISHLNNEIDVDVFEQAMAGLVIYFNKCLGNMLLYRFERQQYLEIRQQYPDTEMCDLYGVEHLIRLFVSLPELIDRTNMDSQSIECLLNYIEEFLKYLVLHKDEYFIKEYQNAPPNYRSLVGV

B1: VID21 (S. pombe) (protein, UniProt O59773 1-994)
chain: MKQKETKTSQIALVDGEKLSITDSFASLFTLDEEEENDSVDNEEIKLTKEKHEKLLLLFWLHCKFPNGLEWLHSSSDLLPEQVSEWFNFYQKYRFKRGRNFNLSARESVTPIVEEPIVPEEPDNLEGVSEETPLKETSLELSEEEIITSKSPIPSPETIHKNIDVEEKETIEPTTPVKEVETTAHAEEEKGPLTPDSEYAARQLTEELANKSSQEEGVDKQLRVVEATEKEHEEDGNEENVTVTKPVEVATDQVESKEVKKKEVSETTEPTAPPVTVAEVLEIEDKVPKVDEVEEVHSPEAKVTENDVENVQSGIDIEKTIQLLNNQEIPSEQQIISVDKATESPVQEVAVDVNEKPVDEIVEPSKLQMENKLPSEKSPTIDRTGVEAPLFELSVSMPLTLIPPSKFSEPVKPELSSEAWLLRTEMSPLHLRLKNAHKYVLSDNWSHAYREEIVRQSLHHLTVAKEKGIWSFRQPKRQNEMPRLKTHRDYVLDEMQWMSIDFSQERKWKIILAHRMANWVMDYHQASDKCTVCTPASLSKNKKPYMQENEHQKDSHEETFNEQIVSHFNLNDNNNNKVLSIPRDSLQFYNAVFSDDIFVTTNSEQIQNCVLNVPMYGPPTENNEYCEEISEKYPITPVSRFAYAKTKLKSTCAKASRKRLFNQLELSPPESFMEKKARSDENQLDGNKIKDDNQKLSSVGTFSVRPPYPPSSKDIRPEAPWLPEEDELLLLLLRRYSFNWEFVASRLTPPGLYIPLAEKRTAWDCFERWIQVDPRAANVQLTGSHARLAQQKLDESLRHSDKVSQHLSLRDEGTPNHLIKHNSYFLLPTVSRHYRPITIFEAIRKILKKREFAKKPTMTKRAIAPSAASTEKLPPVPSPLELSRLKSEREAQIQQIQAQRNFAQLQSQNRALRPQNAAVAAGAQQHNQQLAAFQAVAASQNSSNNSSAGVSPIAGRMVPRLQPYAVSSSLKLTPEQIHQLQQRKQTVPTTERTQ
B2: EPL1 (S. pombe) (protein, UniProt Q9UU94 1-557)
chain: MSSVSKNARAYRQRKVGIKTVMPIYFERDIPDFDEEASLQRTVPLVESGVEKEEEEEKHLQQVINEAHEAIVRGSEKKLIIPTREAKNIGIIDKYYKKNFILPKTLIRFSLTVEECTNPEYCMDEHDTEYFLKLKQAQPSLSKFSELDFEIVMQTFEEEINQNQPFLSMDTSQILPLSELITSFELKDVLYLKPLASQVYPYWRERRISKGGLPIMAKAQVGDDKDDDDPYVCFRRREIRQARKTRRSDAQSYDRLRRLRQSMETSLQLLEQVYKREQKKLQALEDDYAIFQKRCLVKKLKRTLNIKDSDELLINPKRRPIEVKPAAPVPTPAPPVKTSPHPASYRPQPTRNVEVRPLLMLDDVQSAQITQFQIRLQQRLTKKEQLDRNWVDLLETPSTVIHTNYPDSFYRNIIPYYSGKETKQSHNQLSIPSSTPSTPLSDNGPTYSTPHSSLSNFNTCDSLSFSSNNSLYGYSTLLHPRNPICVRQRIGRGGRLMLDRTRALPVHRLSKPKSRVEDRWLFDIPFDADDTIILDDESDASIMFRASLLNDDMGTQS
B3: Sp_Mst1p (protein, UniProt O94446 1-463)
chain: MSNDVDDESKIETKSYEAKDIVYKSKVFAFKDGEYRKAEILMIQKRTRGVVYYVHYNDYNKRLDEWITIDNIDLSKGIEYPPPEKPKKAHGKGKSSKRPKAVDRRRSITAPSKTEPSTPSTEKPEPSTPSGESDHGSNAGNESLPLLEEDHKPESLSKEQEVERLRFSGSMVQNPHEIARIRNINKICIGDHEIEPWYFSPYPKEFSEVDIVYICSFCFCYYGSERQFQRHREKCTLQHPPGNEIYRDDYISFFEIDGRKQRTWCRNICLLSKLFLDHKMLYYDVDPFLFYCMCRRDEYGCHLVGYFSKEKESSENYNLACILTLPQYQRHGYGKLLIQFSYELTKREHKHGSPEKPLSDLGLISYRAYWAEQIINLVLGMRTETTIDELANKTSMTTNDVLHTLQALNMLKYYKGQFIICISDGIEQQYERLKNKKRRRINGDLLADWQPPVFHPSQLRFGW
B4: EAF7 (S. pombe) (protein, UniProt O42924 1-272)
chain: MSSRGTRSSTAAEQKRQEDVNKESNMNDSVTEWSVLEETLLLKAICRGLRPVGIEKNFYMIGILREIRDGCKRSTIKAQDVWNKLGTLYNLKEFEELEAPGNEEVKAKEKRIKSPDVKDFKLPKDILKVKEKSEKPLETSQKVEIETVETKPGEPEVKQETNLQKEKKESKVKLESKEEKISRNLRSSSRSISPVTEQPQSPKIQPVIPEKKEKSEKKESSMTLRKRSVSPSSQNTARSPKRMATEPIEPASSPAASNQAIRRSSRSRRPPT
B5: PAP1 (S. pombe) (protein, UniProt Q01663 1-552)
chain: MSGQTETLSSTSNIPIAKAEPEQSADFSASHKKRGPVSDRSSRRTSSEEVDLMPNVDDEVDGDVKPKKIGRKNSDQEPSSKRKAQNRAAQRAFRKRKEDHLKALETQVVTLKELHSSTTLENDQLRQKVRQLEEELRILKDGSFTFEMSLPHRNPSLSSLPTTGFSSNFAHMKDGISPQSNLHLSPNSIEKPNMHQNVLHNDRSADNLNHRYQVPPTLVDSNSAQGTLSPETPSSSDSPSNLYLNYPKRKSITHLHHDCSALSNGENGEDVADGKQFCQKLSTACGSIACSMLTKTTPHRASVDILSNLHESTVSPPMADESVQRSSEVSKSIPNVELSLNVNQQFVSPFGGTDSFPLPTDTGLDSLFEPDSAIENSHLKNVVMEPELFQAWREPAESLDKEFFNDEGEIDDVFHNYFHNSNENGDLITNSLHGLDFLENANESFPEQMYPFIKHNKDYISNHPDEVPPDGLPQKGKHDTSSQMPSENEIVPAKERAYLSCPKVWSKIINHPRFESFDIDDLCSKLKNKAKCSSSGVLLDERDVEAALNQFN
B6: Sp_Bdc1 (protein, UniProt O74350 1-299)
chain: MNIAQEVAVLQYLDIQQENPNAPNEELFNRTAESSLLLEPIEQDQLKDLVEEWMHDSNKSDSKLLSNQVSQNDNDARKNLRKRLRNDVLKDLAEEIQGCEKKLESLYEEVAKAKAKAVEDQLALEEADKEAKKAKTEAPVEAANKSLRSRKKTPEIAAPANIEPEVAPTTKTPKKRAALSNEEKQSLKKFQSAMLPMLDNISNHRFGAPFSHPVNRKEAPDYDSLVYKPQDLRTLKNMIKEGNITEVDELYREVLRIFANCKMYNGSDPANAMSIWGDECFRYTEELFDIYRQASTRSQ
B7: Sp_Png2 (protein, UniProt O74736 1-305)
chain: MGTSGIEIFAALNDFTDAIVSVPESVCGKFTSLKEIDAQVRDIRQNVIQEIGVVLKNEKNDELSGEERCERLQKTLKEILPYSDSKICLATDAMNNIKSCIDRLDAGFEYVELEIPQQLRLGYPDDRALMNYHSTVTPQTSERRRETRRHQNNQHSQQYSSQERSSSYNNFEDASSPQSSYHTPTKRRKNAVPRKSSSPPLSSTKHAPQSTERRPVRRSESRLKQTNGEPLVKHDTLDSSDISREGEQLYCYCQQVSYGQMIGCDNENCKREWFHLPCVGLVEPPKGIWYCKECEELAKSSESRQ

target: T1, YAF9 (S. pombe) (S. pombe); assay: affinity purification with mass spectrometry; TAP of baits TAP-tagged at their genes from S. pombe extracts; eluates on 6-18% gels, Coomassie, bands and slices identified by MALDI peptide mapping and LC-MS/MS; common background removed, A-index cut-off 1.75

binding, binds:
B1
B2
B3
B4
B5
B6

target: T2, Clr6p (S. pombe) (S. pombe); assay: as above

binding, binds:
B7

target: T3, SWC4 (S. pombe) (S. pombe); assay: as above

binding, binds:
B1
B2
B3
B4
B5
B6

target: T4, Sp_Alp13p (S. pombe); assay: as above

binding, binds:
B1
B2
B3
B4
B5
B6

Reference: paper PMC2614481
